Results from the supplement of paper PMC7125110.
± gives the standard error. The uncertainty is large for many entries.

B1: glmS ribozyme (parent)
chain: AUAAAAGCGCCAGAACUACAGAAAUGUAGUUGACGAGGAGGAGGUUUAUCGAAUUUUCGGCGGAUGCCUCCAAA

Variants of: B1
Assay: kcat; higher = faster cleavage; RNA array
Settings: with glucosamine-6-phosphate
In short: (§1)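 Barcoded ribozyme variants were transcribed in situ on sequenced MiSeq chips by E. coli RNA polymerase. At 37 °C, a hybridised Cy3 probe tracked them while glucosamine-6-phosphate (40 μM to 10 mM) in HEPES/KCl/Mg(OAc)2 buffer flowed in and tiles were imaged over ~14 h. Per-tile medians of signals normalised to baseline and to non-cleaving reference variants were fit to one- or two-exponential decays, giving kobs. kcat and KM came from weighted Michaelis–Menten fits across concentrations.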

Variant	kcat [s⁻¹]
AUAAAAGCGCCAGAUCUACAGAAAUGUAGUUGACGACGAGGAGGUUUAUCGAAUUUUCGGCGGAUGCCUGCAAA	2.75e-05 ± 1.1e-05
AUAAAAGCGCCAGAAGUACAGAAAUGUAGUUGACGAGUAGGAGGUUUAUCGAAUUUUCGGCGAAUGCGUCCAAA	3.16e-05 ± 1.9e-05
AUAAAAGCGCCAGAAUUACAGAAAUGUAGUUGACGAGGAGGAGGUUUAUCGAAUUUUCGGGGGAUGACUCCAAA	2.72e-05 ± 6.4e-06
AUAAAAGCGCCAGAAUUACAGAAAUGUAGUUGACGAGGAGGAGGUUUAUCGAACUUUCGGCGGAUGCCUCCAAA	0.0104 ± 0.0055
AUAAAAGCGCCAGAACUACAGAAAUGUAUUUGACGAGGAGGAGGUUUAUCGAGUUUUCGGCGGAUGCCUCCAAA	0.00448 ± 0.0019
AUAAAAGCGCCAGAACUACAGAAAUGUAUUUGACGAGGAGGAGGUUUAUCGAAUUUUCGGCGGAUGCCUUCAAA	0.000631 ± 0.00032
AUAAAAGCGCCAGAACUACAGAAAUGUAGAUGACGAGGUGGAGGUUUAUCGAAUUUUCGGCGGAUGCCUCCAAA	0.00467 ± 0.0022
AUAAAAGCGCCAGAACUACAGAAAUGUAGCUGACGAGGAGGAGGUUUAUCGAAUUUUCGGCGGAUGCUUCCAAA	0.000128 ± 8.6e-06
AUAAAAGCGCCAGAACUACAGAAAUGUAGGUGACGAGGAGGAGGUUUAUCGAAUUUUCGGCGGAUGCCUCUAAA	0.0102 ± 0.0073
AUAAAAGCGCCAGAACUACAGAAAUGUAGUAGACGAGGAGGAGGUUGAUCGAAUUUUCGGCGGAUGCCUUCAAA	0.00121 ± 0.00064
AUAAAAGCGCCAGAACUACAGAAAUGUAGUGGACGAGGAGGAGGUUUUUCGAAUUUUCGGCGGAUGCCUCCAAA	9.2e-05 ± 5.6e-05
AUAAAAGCGCCAGAACUACAGAAAUGUAGUGGACGAGGAGGAGGUUUAUCGAAUUUUCGGCGGAUGCCUCAAAA	0.000697 ± 0.00041
AUAAAAGCGCCAGAACUACAGAAAUGUAGUUAACGAGGAGGAGGUUUAUCGAAUUGUCGGCGGAUGCCUCCAAA	0.00182 ± 0.0014
AUAAAAGCGCCAGAACUACAGAAAUGUAGUUUACGAGGGGGAGGUUUAUCGAAUUUUCGGCGGAUGCCUCCAAA	0.00159 ± 0.0016
AUAAAAGCGCCAGAACUACAGAAAUGUAGUUUACGAGGAGGCGGUUUAUCGAAUUUUCGGCGGAUGCCUCCAAA	1.43e-05 ± 1.3e-05
AUAAAAGCGCCAGAACUACAGAAAUGUAGUUUACGAGGAGGAGGUUUAUCGAAUUUUCGGCGGAGCCCUCCAAA	1.45e-05 ± 8.6e-06
AUAAAAGCGCCAGAACUACAGAAAUGUAGUUGUCGAGGAGGAGGUUUAUCGACUUUUCGGCGGAUGCCUCCAAA	< 1e-05
AUAAAAGCGCCAGAACUACAGAAAUGUAGUUGUCGAGGAGGAGGUUUAUCGAAUUUUCGGCGGAUGCCGCCAAA	5.59e-05 ± 4.2e-05
AUAAAAGCGCCAGAACUACAGAAAUGUAGUUGAGGAGGAGGAGGUUUAUGGAAUUUUCAGCGGAUGGCUCCAAA	4.06e-05 ± 2.9e-05
AUAAAAGCGCCAGAACUACAGAAAUGUAGUUGAUGAGGAGGAGGUUUAUCGAAUUUUCGGCGGAUGCCGCCAAA	0.00031 ± 0.00016
AUAAAAGCGCCAGAACUACAGAAAUGUAGUUGACGCGGAGGAGGUUUAUGGAAAUUUCGUCGGAUGCCUCCAAA	2.45e-05 ± 1.8e-05

Variants of: B1
Assay: self-cleavage kobs at 2500 uM GlcN6P; higher = faster cleavage; RNA array
Settings: with glucosamine-6-phosphate
In short: as §1

Variant	self-cleavage kobs at 2500 uM GlcN6P [s⁻¹]
AUAAAAGCGCCAGAUCUACAGAAAUGUAGUUGACGACGAGGAGGUUUAUCGAAUUUUCGGCGGAUGCCUGCAAA	3.84e-05 ± 2e-05
AUAAAAGCGCCAGAAGUACAGAAAUGUAGUUGACGAGUAGGAGGUUUAUCGAAUUUUCGGCGAAUGCGUCCAAA	0.000857 ± 0.00071
AUAAAAGCGCCAGAAUUACAGAAAUGUAGUUGACGAGGAGGAGGUUUAUCGAAUUUUCGGGGGAUGACUCCAAA	3.2e-05 ± 2.8e-05
AUAAAAGCGCCAGAACUACAGAAAUGUAGUUGUCGAGGAGGAGGUUUAUCGAAUUUUCGGCGGAUGCCGCCAAA	3.76e-05 ± 1.9e-05
AUAAAAGCGCCAGAACUACAGAAAUGUAGUUGACGCGGAGGAGGUUUAUGGAAAUUUCGUCGGAUGCCUCCAAA	2.38e-05 ± 2.3e-05

Variants of: B1
Assay: self-cleavage kobs at 40 uM GlcN6P; higher = faster cleavage; RNA array
Settings: with glucosamine-6-phosphate
In short: as §1

Variant	self-cleavage kobs at 40 uM GlcN6P [s⁻¹]
AUAAAAGCGCCAGAAGUACAGAAAUGUAGUUGACGAGUAGGAGGUUUAUCGAAUUUUCGGCGAAUGCGUCCAAA	3.32e-05 ± 2.8e-05

Variants of: B1
Assay: self-cleavage kobs at 640 uM GlcN6P; higher = faster cleavage; RNA array
Settings: with glucosamine-6-phosphate
In short: as §1

Variant	self-cleavage kobs at 640 uM GlcN6P [s⁻¹]
AUAAAAGCGCCAGAAGUACAGAAAUGUAGUUGACGAGUAGGAGGUUUAUCGAAUUUUCGGCGAAUGCGUCCAAA	4.71e-05 ± 3.3e-05
AUAAAAGCGCCAGAACUACAGAAAUGUAGUUGAGGAGGAGGAGGUUUAUGGAAUUUUCAGCGGAUGGCUCCAAA	2.36e-05 ± 2.3e-05

Variants of: B1
Assay: KM; higher = weaker cofactor use; RNA array
Settings: with glucosamine-6-phosphate
In short: as §1

Variant	KM [µM]
AUAAAAGCGCCAGAAUUACAGAAAUGUAGUUGACGAGGAGGAGGUUUAUCGAACUUUCGGCGGAUGCCUCCAAA	732 ± 590
AUAAAAGCGCCAGAACUACAGAAAUGUAUUUGACGAGGAGGAGGUUUAUCGAGUUUUCGGCGGAUGCCUCCAAA	2380 ± 1500
AUAAAAGCGCCAGAACUACAGAAAUGUAGAUGACGAGGUGGAGGUUUAUCGAAUUUUCGGCGGAUGCCUCCAAA	1480 ± 1000
AUAAAAGCGCCAGAACUACAGAAAUGUAGCUGACGAGGAGGAGGUUUAUCGAAUUUUCGGCGGAUGCUUCCAAA	1210 ± 270
AUAAAAGCGCCAGAACUACAGAAAUGUAGGUGACGAGGAGGAGGUUUAUCGAAUUUUCGGCGGAUGCCUCUAAA	3100 ± 2900
AUAAAAGCGCCAGAACUACAGAAAUGUAGUAGACGAGGAGGAGGUUGAUCGAAUUUUCGGCGGAUGCCUUCAAA	518 ± 480
AUAAAAGCGCCAGAACUACAGAAAUGUAGUGGACGAGGAGGAGGUUUAUCGAAUUUUCGGCGGAUGCCUCAAAA	231 ± 220

Three successive entries already listed:
Variant	KM [µM]
AUAAAAGCGCCAGAACUACAGAAAUGUAGAUGACGAGGUGGAGGUUUAUCGAAUUUUCGGCGGAUGCCUCCAAA	1480 ± 1000
AUAAAAGCGCCAGAACUACAGAAAUGUAGCUGACGAGGAGGAGGUUUAUCGAAUUUUCGGCGGAUGCUUCCAAA	1210 ± 270
AUAAAAGCGCCAGAACUACAGAAAUGUAGGUGACGAGGAGGAGGUUUAUCGAAUUUUCGGCGGAUGCCUCUAAA	3100 ± 2900

Variants of: B1
Assay: self-cleavage kobs at 160 uM GlcN6P; higher = faster cleavage; RNA array
Settings: with glucosamine-6-phosphate
In short: as §1

Variant	self-cleavage kobs at 160 uM GlcN6P [s⁻¹]
AUAAAAGCGCCAGAACUACAGAAAUGUAGUUUACGAGGGGGAGGUUUAUCGAAUUUUCGGCGGAUGCCUCCAAA	2.96e-05 ± 2.1e-05
